Data as given in PubChem BioAssay AID624150 (Cancer Research UK Cambridge, 2012)

Purpose: 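Which chromatin factors steer differentiation of epidermal stem cells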 (primary screen)
Cells: primary human epidermal keratinocytes
Knock-down reagent: siRNA pool against human genes, 1-2 µM siRNA in 20 µl nucleofection
Timing: 72 h after transfection plus 48 h differentiation (about 5 days)
Conditions: five arms for 48 h: vehicle, AG1478 10 µM, BMP2/7 200 ng/ml, both together, or 10% serum
Detection: 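Transglutaminase 1 immunostaining divided by DNA staining in each well, background removed, then z-scored versus every test siRNA on that plate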
Direction: z-score, vehicle and z-score, AG1478 10 µM and z-score, BMP2/7 200 ng/ml and z-score, AG1478 with BMP2/7 and z-score, 10% serum: higher = more differentiation marker per cell
In all, the deposit lists 331 reagents; this is a random part of them. 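Each arm had three replicate z-scores, but only the first replicate is printed; higher values mean more differentiation marker per cell.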

| target gene | z-score, vehicle | z-score, AG1478 10 µM | z-score, BMP2/7 200 ng/ml | z-score, AG1478 with BMP2/7 | z-score, 10% serum |
| --- | --- | --- | --- | --- | --- |
| UHRF2 | -0.667 | 0.261 | 0.483 | 0.568 | 0.582 |
| RIOX2 | -1.59 | 0.0198 | 0.219 | 0.3 | 0.337 |
| L3MBTL1 | 2.19 | -0.349 | -0.953 | -1.02 | -0.538 |
| CHD1 | 0.0323 | 0.89 | -0.0843 | -0.0478 | 0.0938 |
| CHD2 | 0.244 | -0.117 | -0.474 | -0.546 | 0.459 |
| ZCWPW1 | -0.254 | 0.11 | -1.12 | -0.636 | -0.406 |
| BAHD1 | 1.05 | 0.728 | 0.118 | 0.445 | 0.67 |
| MBD6 | -1.3 | -0.29 | -1.14 | -0.681 | -0.253 |
| SIRT4 | 0.13 | 1.06 | 0.303 | 0.926 | 1.07 |
| SETD4 | 0.631 | 0.462 | 0.809 | 0.116 | 0.858 |
| INO80 | -1.27 | -1.19 | -1.01 | -1.74 | -2.85 |
| KDM2A | -0.516 | -0.911 | -0.224 | 0.105 | 0.0618 |
| KMT5B | 0.268 | 0.138 | -0.0296 | 0.0464 | 0.186 |
| ERCC6L | 0.138 | 0.202 | -0.0105 | 0.84 | 0.202 |
| PRDM14 | 3.16 | 0.384 | 0.803 | 0.0952 | 1.1 |
| SMNDC1 | 0.0818 | -0.676 | -0.121 | -0.0292 | 0.416 |
| PHIP | -1.1 | -0.835 | -1.43 | -0.836 | 0.0498 |
| TYW5 | 0.35 | -0.373 | 0.443 | -0.314 | 1.06 |
| CDYL | 0.153 | 0.242 | -0.215 | -0.217 | 0.499 |
| ACACA | -0.982 | 0.852 | -1.25 | -0.219 | 0.903 |
| MBD2 | -0.786 | -1.04 | -0.121 | -0.623 | -0.228 |
| KDM5B | -0.606 | -1.03 | -0.358 | -0.551 | -0.827 |
| CARM1 | -1.51 | -2.01 | -1.36 | -2.65 | -3.46 |
| JMJD6 | -1.31 | 0.0814 | 0.5 | -0.129 | 0.334 |
| L3MBTL3 | -0.723 | -0.967 | -1.05 | -1.08 | -0.946 |
| TCF20 | -0.938 | -0.651 | -0.722 | 1.41 | -0.68 |
| GLYR1 | -0.736 | -1.12 | -0.754 | -0.271 | -0.66 |
| TDRKH | -0.735 | -0.477 | -1.58 | -0.334 | -0.291 |
| MBTD1 | 0.685 | -1.02 | -1.55 | -0.955 | -0.656 |
| PYGO2 | -0.875 | -0.399 | -0.419 | 0.0832 | -0.333 |
| MECP2 | 0.662 | -0.608 | -1.04 | -0.431 | 0.238 |
| SND1 | 0.0268 | -0.174 | -0.931 | 0.683 | 0.325 |
| CHD6 | -1.04 | -1.18 | -0.398 | 0.162 | -0.984 |
| CYP11A1 | -0.572 | -0.379 | 0.367 | 0.581 | 0.487 |
| KMT2B | -0.616 | -0.121 | 0.141 | -0.494 | 0.179 |
| CBX6 | 1.42 | 0.416 | 1.22 | -0.58 | 0.417 |
| GTF3C4 | 1.07 | 0.338 | 1.68 | 1 | 1.13 |
| PWWP2B | 0.863 | 0.217 | 0.201 | -0.726 | 1.17 |
| PRDM13 | -0.0283 | 0.239 | -0.0978 | 0.28 | 0.745 |
| CBX2 | 0.309 | 0.0858 | 0.798 | -0.761 | 0.843 |
| TRIM66 | 0.017 | 0.469 | 0.698 | 1.09 | 0.171 |
| THUMPD2 | 1.88 | 1.89 | 1.9 | 0.195 | 0.535 |
| RNF17 | 0.342 | 0.181 | -0.0249 | 0.425 | 0.269 |
| OGT | -0.478 | -0.446 | -1.42 | -0.69 | -1.29 |
| SHPRH | 1.65 | 1.65 | 1.31 | 1.97 | 1.05 |
| KAT2A | 0.655 | -0.0584 | -0.0142 | 0.137 | 0.943 |
| SCML2 | 0.616 | -0.544 | -0.411 | -0.592 | 0.0892 |
| ETV6 | 0.998 | -0.00351 | -0.728 | -0.0417 | -0.0689 |
| JMJD1C | -0.329 | 0.634 | 0.609 | 0.395 | 0.209 |
| SIRT7 | -0.976 | -1.3 | -1.18 | -1.03 | 0.816 |
| BRWD3 | 0.369 | -0.174 | -0.135 | -0.689 | 0.46 |
| SUV39H1 | -0.288 | -0.426 | 0.219 | 0.778 | -0.797 |
| AKAP1 | -0.0519 | -0.682 | -0.611 | -0.999 | -0.119 |
| RIOX1 | 0.168 | -0.283 | 0.436 | -0.49 | 0.386 |
| SMYD5 | 1.02 | -0.558 | -0.649 | -0.971 | 0.661 |
| HDAC4 | 0.379 | -0.0897 | 0.463 | 1.06 | 0.586 |
| PRDM16 | -0.534 | 0.159 | -0.532 | 1.08 | 0.0778 |
| ATAD2B | 0.169 | -0.643 | -0.362 | 0.656 | 0.465 |
| EP400 | -2 | -1.81 | -1.51 | -1.89 | -3.71 |
| SETDB1 | -0.832 | -0.633 | -0.718 | 0.0758 | -0.531 |
| FBXL19 | 1.15 | 1.68 | 0.761 | 1.18 | 0.668 |
| SMARCC1 | -0.876 | 0.385 | 0.675 | 1.87 | 0.265 |
| BPTF | 2.53 | 1.26 | 2.25 | 1.17 | 1.31 |
